Laboratory results reported in doi:10.1101/2020.01.10.901496.

Molecular target: NISP (AT4G30240) full length, Gal4 fusions for the yeast two-hybrid assay (Arabidopsis thaliana) (UniProt F4JPK7)
Assay: two-hybrid

**Q.** With “NSP-interacting GTPase (NIG), Gal4 activation domain fusion for the yeast two-hybrid assay (from UniProt F4JT06)” as the substance, how does the binding read?
**A.** The binding was “binds”.

These are yes or no findings as the source states them, for the method shown. Binding can be weak; no strength is given.
